# Measured values taken from the supplement of paper PMC12823440, “Inhibitors supercharge kinase turnover through native proteolytic circuits” (Nature, 2025).
# Amino acid sequences for entries named in this document (tags omitted). A change or cut given only in a name is not applied to a line headed by its entry.
# UniProt P50613: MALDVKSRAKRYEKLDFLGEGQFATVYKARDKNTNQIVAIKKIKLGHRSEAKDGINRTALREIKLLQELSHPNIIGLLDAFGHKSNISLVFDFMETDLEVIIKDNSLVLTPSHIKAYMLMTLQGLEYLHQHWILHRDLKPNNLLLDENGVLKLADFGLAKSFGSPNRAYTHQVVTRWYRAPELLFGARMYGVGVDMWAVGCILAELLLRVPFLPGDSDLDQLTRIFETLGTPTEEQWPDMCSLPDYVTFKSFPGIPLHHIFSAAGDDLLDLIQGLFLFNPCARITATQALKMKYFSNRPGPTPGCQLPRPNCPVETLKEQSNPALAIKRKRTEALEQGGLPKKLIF
# UniProt P50750, whole entry: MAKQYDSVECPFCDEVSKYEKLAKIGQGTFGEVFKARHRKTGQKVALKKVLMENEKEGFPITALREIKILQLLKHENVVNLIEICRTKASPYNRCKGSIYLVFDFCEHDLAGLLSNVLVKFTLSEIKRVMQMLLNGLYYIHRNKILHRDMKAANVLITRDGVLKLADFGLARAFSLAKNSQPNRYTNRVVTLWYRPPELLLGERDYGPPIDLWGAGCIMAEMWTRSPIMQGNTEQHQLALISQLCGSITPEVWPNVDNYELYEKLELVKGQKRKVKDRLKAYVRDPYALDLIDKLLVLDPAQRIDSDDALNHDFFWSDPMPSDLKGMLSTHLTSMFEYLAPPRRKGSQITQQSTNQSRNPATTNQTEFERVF
# UniProt O96017, whole entry: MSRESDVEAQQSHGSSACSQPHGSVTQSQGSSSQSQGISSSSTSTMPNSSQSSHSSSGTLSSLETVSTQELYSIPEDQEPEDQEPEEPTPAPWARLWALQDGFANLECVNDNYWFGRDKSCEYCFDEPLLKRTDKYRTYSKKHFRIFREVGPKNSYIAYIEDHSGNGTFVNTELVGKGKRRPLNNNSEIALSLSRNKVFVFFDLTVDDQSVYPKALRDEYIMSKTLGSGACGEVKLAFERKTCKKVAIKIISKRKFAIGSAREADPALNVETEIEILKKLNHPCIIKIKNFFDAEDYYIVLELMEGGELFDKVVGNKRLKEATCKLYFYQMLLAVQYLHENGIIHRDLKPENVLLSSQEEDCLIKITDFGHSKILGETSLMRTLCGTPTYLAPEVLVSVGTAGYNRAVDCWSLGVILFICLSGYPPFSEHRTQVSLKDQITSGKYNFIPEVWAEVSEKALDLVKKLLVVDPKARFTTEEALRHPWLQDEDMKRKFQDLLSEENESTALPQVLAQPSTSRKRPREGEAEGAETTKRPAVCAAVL
# UniProt P07333, whole entry: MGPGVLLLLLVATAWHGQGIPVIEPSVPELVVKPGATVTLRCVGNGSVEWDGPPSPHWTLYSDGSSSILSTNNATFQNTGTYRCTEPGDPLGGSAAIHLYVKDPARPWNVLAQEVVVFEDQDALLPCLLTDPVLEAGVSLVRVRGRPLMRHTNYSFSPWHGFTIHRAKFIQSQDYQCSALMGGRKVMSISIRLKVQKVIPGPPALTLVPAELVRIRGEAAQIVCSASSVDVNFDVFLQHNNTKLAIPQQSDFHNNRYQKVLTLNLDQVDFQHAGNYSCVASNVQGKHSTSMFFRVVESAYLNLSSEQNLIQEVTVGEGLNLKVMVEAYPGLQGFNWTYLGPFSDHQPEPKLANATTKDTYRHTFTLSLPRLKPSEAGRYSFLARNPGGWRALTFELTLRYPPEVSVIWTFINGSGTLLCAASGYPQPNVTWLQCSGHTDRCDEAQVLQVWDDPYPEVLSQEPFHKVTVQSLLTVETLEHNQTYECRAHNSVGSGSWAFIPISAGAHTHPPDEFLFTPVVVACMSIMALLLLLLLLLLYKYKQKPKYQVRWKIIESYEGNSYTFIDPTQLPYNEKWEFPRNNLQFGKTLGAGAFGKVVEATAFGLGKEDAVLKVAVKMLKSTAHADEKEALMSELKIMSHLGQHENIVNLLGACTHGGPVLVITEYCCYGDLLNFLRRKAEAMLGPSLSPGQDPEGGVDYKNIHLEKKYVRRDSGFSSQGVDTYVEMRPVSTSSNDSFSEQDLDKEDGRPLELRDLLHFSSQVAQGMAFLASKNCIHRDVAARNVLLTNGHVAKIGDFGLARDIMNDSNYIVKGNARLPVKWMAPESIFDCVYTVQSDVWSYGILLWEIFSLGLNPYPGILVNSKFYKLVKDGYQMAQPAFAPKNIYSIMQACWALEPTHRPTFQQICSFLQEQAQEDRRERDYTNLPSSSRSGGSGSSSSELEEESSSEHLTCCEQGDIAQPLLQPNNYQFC
# UniProt P41240: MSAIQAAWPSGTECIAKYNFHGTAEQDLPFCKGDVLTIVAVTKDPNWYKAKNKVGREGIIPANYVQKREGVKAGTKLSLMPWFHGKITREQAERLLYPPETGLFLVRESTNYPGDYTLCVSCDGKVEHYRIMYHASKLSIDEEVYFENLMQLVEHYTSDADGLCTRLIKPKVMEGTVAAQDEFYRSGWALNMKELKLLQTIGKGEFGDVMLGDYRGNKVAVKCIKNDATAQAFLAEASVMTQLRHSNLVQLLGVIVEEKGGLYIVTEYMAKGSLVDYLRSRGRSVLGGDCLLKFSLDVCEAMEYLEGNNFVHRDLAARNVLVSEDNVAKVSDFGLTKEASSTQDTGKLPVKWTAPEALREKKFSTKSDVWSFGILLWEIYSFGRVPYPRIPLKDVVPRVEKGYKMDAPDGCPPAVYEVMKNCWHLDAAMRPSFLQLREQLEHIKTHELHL
# UniProt P48729: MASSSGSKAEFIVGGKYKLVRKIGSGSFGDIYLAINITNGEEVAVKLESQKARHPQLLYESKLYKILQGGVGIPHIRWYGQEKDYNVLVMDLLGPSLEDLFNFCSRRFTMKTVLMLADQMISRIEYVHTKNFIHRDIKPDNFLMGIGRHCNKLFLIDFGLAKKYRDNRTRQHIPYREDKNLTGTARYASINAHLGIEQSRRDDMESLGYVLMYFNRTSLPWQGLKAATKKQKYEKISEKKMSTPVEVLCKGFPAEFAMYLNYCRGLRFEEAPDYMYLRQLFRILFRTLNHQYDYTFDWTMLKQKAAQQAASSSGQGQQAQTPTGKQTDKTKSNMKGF
# UniProt Q92630: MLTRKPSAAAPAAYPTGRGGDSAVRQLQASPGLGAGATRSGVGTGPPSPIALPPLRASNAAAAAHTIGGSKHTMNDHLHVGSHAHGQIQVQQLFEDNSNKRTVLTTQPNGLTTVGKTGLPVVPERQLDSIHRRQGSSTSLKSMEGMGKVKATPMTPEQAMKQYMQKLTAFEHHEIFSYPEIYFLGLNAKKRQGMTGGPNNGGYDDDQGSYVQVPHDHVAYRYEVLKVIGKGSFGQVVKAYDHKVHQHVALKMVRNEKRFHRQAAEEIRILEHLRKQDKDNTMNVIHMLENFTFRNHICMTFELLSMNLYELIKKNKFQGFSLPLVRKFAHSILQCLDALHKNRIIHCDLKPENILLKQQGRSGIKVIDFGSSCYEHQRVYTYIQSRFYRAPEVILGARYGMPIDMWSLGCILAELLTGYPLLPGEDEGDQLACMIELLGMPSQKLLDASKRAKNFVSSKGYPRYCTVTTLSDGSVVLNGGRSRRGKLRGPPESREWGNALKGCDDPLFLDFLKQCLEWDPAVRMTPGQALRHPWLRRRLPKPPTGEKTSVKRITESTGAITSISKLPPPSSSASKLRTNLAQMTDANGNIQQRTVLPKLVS
# UniProt P21860, whole entry: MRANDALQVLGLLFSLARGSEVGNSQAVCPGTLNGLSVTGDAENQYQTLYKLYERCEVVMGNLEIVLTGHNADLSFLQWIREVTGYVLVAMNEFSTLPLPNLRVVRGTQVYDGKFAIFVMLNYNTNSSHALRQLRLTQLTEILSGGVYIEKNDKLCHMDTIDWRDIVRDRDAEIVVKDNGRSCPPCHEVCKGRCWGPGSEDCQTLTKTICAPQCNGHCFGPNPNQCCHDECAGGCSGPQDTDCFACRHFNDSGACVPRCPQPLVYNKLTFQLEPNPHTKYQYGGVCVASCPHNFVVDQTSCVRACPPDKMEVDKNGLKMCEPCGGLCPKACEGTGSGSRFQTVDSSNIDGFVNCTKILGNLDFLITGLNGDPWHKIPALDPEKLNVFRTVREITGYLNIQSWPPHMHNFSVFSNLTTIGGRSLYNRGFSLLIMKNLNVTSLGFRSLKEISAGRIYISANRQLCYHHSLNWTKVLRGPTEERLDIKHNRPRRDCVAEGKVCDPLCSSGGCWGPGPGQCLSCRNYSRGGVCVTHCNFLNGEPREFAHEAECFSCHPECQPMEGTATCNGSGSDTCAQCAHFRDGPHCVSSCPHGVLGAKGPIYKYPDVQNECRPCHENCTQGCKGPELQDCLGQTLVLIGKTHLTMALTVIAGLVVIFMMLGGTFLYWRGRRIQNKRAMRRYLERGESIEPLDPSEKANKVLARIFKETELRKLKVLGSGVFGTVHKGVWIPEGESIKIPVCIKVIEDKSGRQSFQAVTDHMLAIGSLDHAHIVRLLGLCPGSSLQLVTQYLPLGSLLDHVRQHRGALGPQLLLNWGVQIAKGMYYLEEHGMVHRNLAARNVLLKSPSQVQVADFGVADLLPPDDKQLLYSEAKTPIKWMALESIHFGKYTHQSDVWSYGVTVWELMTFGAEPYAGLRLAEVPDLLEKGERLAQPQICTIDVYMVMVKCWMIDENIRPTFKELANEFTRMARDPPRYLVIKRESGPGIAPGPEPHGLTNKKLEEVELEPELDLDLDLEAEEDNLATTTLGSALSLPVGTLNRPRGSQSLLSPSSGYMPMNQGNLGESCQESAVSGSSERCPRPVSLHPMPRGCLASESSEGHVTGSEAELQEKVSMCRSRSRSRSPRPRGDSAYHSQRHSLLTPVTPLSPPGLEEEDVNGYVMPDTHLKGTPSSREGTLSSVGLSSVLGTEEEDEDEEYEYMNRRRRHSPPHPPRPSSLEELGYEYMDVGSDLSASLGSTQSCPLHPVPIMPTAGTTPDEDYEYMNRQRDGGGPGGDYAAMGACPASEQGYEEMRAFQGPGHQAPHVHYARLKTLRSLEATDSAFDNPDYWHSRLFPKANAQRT
# UniProt Q15303, whole entry R711C: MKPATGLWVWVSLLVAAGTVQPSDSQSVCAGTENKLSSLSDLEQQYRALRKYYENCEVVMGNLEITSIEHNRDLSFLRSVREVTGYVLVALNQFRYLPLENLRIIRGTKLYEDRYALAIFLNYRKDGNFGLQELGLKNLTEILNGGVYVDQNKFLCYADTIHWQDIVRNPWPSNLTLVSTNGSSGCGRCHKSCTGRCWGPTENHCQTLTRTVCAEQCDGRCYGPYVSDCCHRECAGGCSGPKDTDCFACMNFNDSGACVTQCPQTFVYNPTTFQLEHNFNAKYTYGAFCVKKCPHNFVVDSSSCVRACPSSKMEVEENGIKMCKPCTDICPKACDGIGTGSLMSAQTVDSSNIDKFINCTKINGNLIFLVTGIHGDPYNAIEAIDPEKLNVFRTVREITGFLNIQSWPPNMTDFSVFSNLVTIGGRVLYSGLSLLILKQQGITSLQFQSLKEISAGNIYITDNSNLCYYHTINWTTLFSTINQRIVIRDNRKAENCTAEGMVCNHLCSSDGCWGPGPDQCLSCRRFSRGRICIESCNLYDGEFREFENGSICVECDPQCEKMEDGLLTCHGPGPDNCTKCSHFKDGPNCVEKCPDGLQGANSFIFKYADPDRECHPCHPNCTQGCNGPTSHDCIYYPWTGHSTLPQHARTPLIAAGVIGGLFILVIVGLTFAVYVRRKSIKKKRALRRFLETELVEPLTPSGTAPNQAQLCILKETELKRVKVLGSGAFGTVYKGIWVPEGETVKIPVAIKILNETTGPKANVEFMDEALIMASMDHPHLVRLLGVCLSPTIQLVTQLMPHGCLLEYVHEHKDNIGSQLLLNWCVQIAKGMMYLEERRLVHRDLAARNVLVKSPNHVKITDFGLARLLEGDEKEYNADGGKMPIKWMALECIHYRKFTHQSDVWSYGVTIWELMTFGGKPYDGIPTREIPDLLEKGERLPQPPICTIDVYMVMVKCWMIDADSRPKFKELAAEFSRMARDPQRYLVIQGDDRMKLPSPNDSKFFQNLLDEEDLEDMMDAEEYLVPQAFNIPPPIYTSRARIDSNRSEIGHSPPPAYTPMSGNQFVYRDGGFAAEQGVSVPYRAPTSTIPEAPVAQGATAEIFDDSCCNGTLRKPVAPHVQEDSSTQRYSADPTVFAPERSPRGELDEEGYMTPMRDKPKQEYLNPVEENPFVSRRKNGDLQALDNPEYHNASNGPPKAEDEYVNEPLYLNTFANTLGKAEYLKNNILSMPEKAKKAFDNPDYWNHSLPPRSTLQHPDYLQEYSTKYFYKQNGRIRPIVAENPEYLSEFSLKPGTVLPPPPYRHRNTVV
# This is one part of the list. The calls rarely recur for the same compound in another form.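 In K562 cells expressing nanoluciferase-fused kinases, luminescence was recorded at 4 h intervals between 2 and 18 h, normalized as percent of control with DMSO at 100% and a positive control at 0%. A significant (2 sigma) signal drop marks a time point as decreased. The authors' rule for a hit is not shown and takes in more than the number of time points.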
# What was measured:
# Test in all cases: kinase-Nluc reporter destabilization hit call (1 = scored as downregulated) (binary); higher = compound decreases kinase abundance
# Settings in all cases: K562; 2-18 h
# CDK7 = CDK7 (UniProt P50613)
# CDK9 = CDK9 (UniProt P50750)
# CHEK2 = CHEK2 (UniProt O96017)
# CSF1R = CSF1R (UniProt P07333)
# CSK = CSK (UniProt P41240)
# CSNK1A1 = CSNK1A1 (UniProt P48729)
# CSNK1D = CSNK1D (UniProt P48730)
# DDR1 = DDR1 (UniProt Q08345)
# DYRK1B = DYRK1B (UniProt Q9Y463)
# DYRK2 = DYRK2 (UniProt Q92630)
# EGFR = EGFR (UniProt P00533)
# EGFR_G719S = EGFR_G719S (UniProt P00533)
# EGFR_G719S_T790M = EGFR_G719S_T790M (UniProt P00533)
# EGFR_L718V = EGFR_L718V (UniProt P00533)
# EGFR_L858R = EGFR_L858R (UniProt P00533)
# EGFR_L861Q = EGFR_L861Q (UniProt P00533)
# EGFR_T790M = EGFR_T790M (UniProt P00533)
# EPHA2 = EPHA2 (UniProt P29317)
# ERBB3 = ERBB3 (UniProt P21860)
# [1] = biological target: ERBB4_R711C (clone: ERBB4_mut) (UniProt Q15303)
SMILES,kinase-Nluc reporter destabilization hit call (CDK7),kinase-Nluc reporter destabilization hit call (CDK9),kinase-Nluc reporter destabilization hit call (CHEK2),kinase-Nluc reporter destabilization hit call (CSF1R),kinase-Nluc reporter destabilization hit call (CSK),kinase-Nluc reporter destabilization hit call (CSNK1A1),kinase-Nluc reporter destabilization hit call (CSNK1D),kinase-Nluc reporter destabilization hit call (DDR1),kinase-Nluc reporter destabilization hit call (DYRK1B),kinase-Nluc reporter destabilization hit call (DYRK2),kinase-Nluc reporter destabilization hit call (EGFR),kinase-Nluc reporter destabilization hit call (EGFR_G719S),kinase-Nluc reporter destabilization hit call (EGFR_G719S_T790M),kinase-Nluc reporter destabilization hit call (EGFR_L718V),kinase-Nluc reporter destabilization hit call (EGFR_L858R),kinase-Nluc reporter destabilization hit call (EGFR_L861Q),kinase-Nluc reporter destabilization hit call (EGFR_T790M),kinase-Nluc reporter destabilization hit call (EPHA2),kinase-Nluc reporter destabilization hit call (ERBB3),kinase-Nluc reporter destabilization hit call [1]
COc1cc(F)ccc1-c1ncnc(Nc2cccc(C[S@](C)(=N)=O)c2)n1 [Atuveciclib] (2.5 µM),inactive: 0,inactive: 0,inactive: 0,inactive: 0,inactive: 0,inactive: 0,inactive: 0,inactive: 0,inactive: 0,inactive: 0,inactive: 0,inactive: 0,inactive: 0,inactive: 0,inactive: 0,inactive: 0,inactive: 0,inactive: 0,inactive: 0,inactive: 0
COc1cc(N2CCOCC2)ccc1Nc1ncc(F)c(Nc2ccccc2NS(C)(=O)=O)n1 (10 µM),inactive: 0,inactive: 0,inactive: 0,inactive: 0,inactive: 0,inactive: 0,inactive: 0,inactive: 0,inactive: 0,inactive: 0,inactive: 0,inactive: 0,inactive: 0,inactive: 0,inactive: 0,inactive: 0,inactive: 0,inactive: 0,inactive: 0,inactive: 0
COc1cc2ncnc(Nc3ccc(O)c(Br)c3)c2cc1OC (10 µM),inactive: 0,inactive: 0,inactive: 0,inactive: 0,inactive: 0,inactive: 0,inactive: 0,inactive: 0,inactive: 0,inactive: 0,inactive: 0,inactive: 0,inactive: 0,inactive: 0,inactive: 0,inactive: 0,inactive: 0,inactive: 0,inactive: 0,inactive: 0
CN1CCC(CNc2ccc3ncc(-c4cccc(OC(F)(F)F)c4)n3n2)CC1 (2.5 µM),inactive: 0,inactive: 0,inactive: 0,inactive: 0,inactive: 0,inactive: 0,inactive: 0,inactive: 0,inactive: 0,inactive: 0,inactive: 0,inactive: 0,inactive: 0,inactive: 0,inactive: 0,inactive: 0,inactive: 0,inactive: 0,inactive: 0,inactive: 0
Nc1ncc(-c2ccnc(Nc3ccncc3)n2)c(CC2CC2)n1 (10 µM),inactive: 0,inactive: 0,inactive: 0,inactive: 0,inactive: 0,inactive: 0,inactive: 0,inactive: 0,inactive: 0,inactive: 0,inactive: 0,inactive: 0,inactive: 0,inactive: 0,inactive: 0,inactive: 0,inactive: 0,inactive: 0,inactive: 0,inactive: 0
COc1cc(-c2cc(OP(=O)(O)O)cc(-c3cc(OC)c(OC)c(OC)c3)c2)cc(OC)c1OC [Stafia-1] (10 µM),inactive: 0,inactive: 0,inactive: 0,inactive: 0,inactive: 0,inactive: 0,inactive: 0,inactive: 0,inactive: 0,inactive: 0,inactive: 0,inactive: 0,inactive: 0,inactive: 0,inactive: 0,inactive: 0,inactive: 0,inactive: 0,inactive: 0,inactive: 0
COc1cc(-c2cc(-c3ccc(N4CCNCC4)cc3)cnc2C)cc(OC)c1OC (10 µM),inactive: 0,inactive: 0,inactive: 0,inactive: 0,inactive: 0,inactive: 0,inactive: 0,inactive: 0,inactive: 0,inactive: 0,inactive: 0,inactive: 0,inactive: 0,inactive: 0,inactive: 0,inactive: 0,inactive: 0,inactive: 0,inactive: 0,inactive: 0
CC1=C(C(=O)Nc2cc3cn[nH]c3cc2F)C(c2ccc(C(F)(F)F)cc2)CC(=O)N1 (stereo not given) (10 µM),inactive: 0,inactive: 0,inactive: 0,inactive: 0,inactive: 0,inactive: 0,inactive: 0,inactive: 0,inactive: 0,inactive: 0,inactive: 0,inactive: 0,inactive: 0,inactive: 0,inactive: 0,inactive: 0,inactive: 0,inactive: 0,inactive: 0,inactive: 0
CC(Sc1nc2c(cnn2-c2cccc(Cl)c2)c(=O)[nH]1)C(N)=O (stereo not given) (10 µM),inactive: 0,inactive: 0,inactive: 0,inactive: 0,inactive: 0,inactive: 0,inactive: 0,inactive: 0,inactive: 0,inactive: 0,inactive: 0,inactive: 0,inactive: 0,inactive: 0,inactive: 0,inactive: 0,inactive: 0,inactive: 0,inactive: 0,inactive: 0
COc1cc(-c2oc3cc(O)cc(O)c3c(=O)c2O)ccc1O [Isorhamnetin] (10 µM),inactive: 0,inactive: 0,inactive: 0,inactive: 0,inactive: 0,inactive: 0,inactive: 0,inactive: 0,inactive: 0,inactive: 0,inactive: 0,inactive: 0,inactive: 0,inactive: 0,inactive: 0,inactive: 0,inactive: 0,inactive: 0,inactive: 0,inactive: 0
Cn1ncc(NC(=O)c2nc(-c3c(F)cccc3F)sc2N)c1N1CC[C@@H](N)[C@H](F)CC1 (10 µM),inactive: 0,inactive: 0,inactive: 0,inactive: 0,inactive: 0,inactive: 0,inactive: 0,inactive: 0,inactive: 0,inactive: 0,inactive: 0,inactive: 0,inactive: 0,inactive: 0,inactive: 0,inactive: 0,inactive: 0,inactive: 0,inactive: 0,inactive: 0
CC(C)(C)Cc1[nH]nc2c1[C@@](C)(c1ccccc1)C1=C(CC(C)(C)CC1=O)N2 (10 µM),inactive: 0,inactive: 0,inactive: 0,inactive: 0,inactive: 0,inactive: 0,inactive: 0,inactive: 0,inactive: 0,inactive: 0,inactive: 0,inactive: 0,inactive: 0,inactive: 0,inactive: 0,inactive: 0,inactive: 0,inactive: 0,inactive: 0,inactive: 0
Cc1ccc(NC(=O)Nc2cc(C(F)(F)F)ccc2F)cc1Nc1ccc2c(c1)NC(=O)/C2=C\c1ccc[nH]1 (2.5 µM),inactive: 0,inactive: 0,inactive: 0,inactive: 0,inactive: 0,inactive: 0,inactive: 0,inactive: 0,inactive: 0,inactive: 0,inactive: 0,inactive: 0,inactive: 0,inactive: 0,inactive: 0,inactive: 0,inactive: 0,inactive: 0,inactive: 0,inactive: 0
O=C(ON=C1c2ccccc2-c2nc3ccccc3nc21)c1ccco1 (2.5 µM),inactive: 0,inactive: 0,inactive: 0,inactive: 0,inactive: 0,inactive: 0,inactive: 0,inactive: 0,inactive: 0,inactive: 0,inactive: 0,inactive: 0,inactive: 0,inactive: 0,inactive: 0,inactive: 0,inactive: 0,inactive: 0,inactive: 0,inactive: 0
Cc1cc(-n2c(=O)ccc3c[nH]c4nccc-4c32)ccc1F (10 µM),inactive: 0,inactive: 0,inactive: 0,inactive: 0,inactive: 0,inactive: 0,inactive: 0,inactive: 0,inactive: 0,inactive: 0,inactive: 0,inactive: 0,inactive: 0,inactive: 0,inactive: 0,inactive: 0,inactive: 0,inactive: 0,inactive: 0,inactive: 0
NC[C@@](O)(c1ccc(Cl)cc1)c1ccc(-c2cn[nH]c2)cc1 (10 µM),inactive: 0,inactive: 0,inactive: 0,inactive: 0,inactive: 0,inactive: 0,inactive: 0,active: 1,inactive: 0,inactive: 0,inactive: 0,inactive: 0,inactive: 0,inactive: 0,inactive: 0,inactive: 0,inactive: 0,inactive: 0,inactive: 0,inactive: 0
CO[C@H]1C[C@@H]2CC[C@@H](C)[C@@](O)(O2)C(=O)C(=O)N2CCCC[C@H]2C(=O)O[C@H]([C@H](C)C[C@@H]2CC[C@@H](OC(=O)C(C)(CO)CO)[C@H](OC)C2)CC(=O)[C@H](C)/C=C(\C)[C@@H](O)[C@@H](OC)C(=O)[C@H](C)C[C@H](C)/C=C/C=C/C=C/1C [Temsirolimus] (2.5 µM),inactive: 0,inactive: 0,inactive: 0,inactive: 0,inactive: 0,inactive: 0,inactive: 0,inactive: 0,inactive: 0,inactive: 0,inactive: 0,inactive: 0,inactive: 0,inactive: 0,inactive: 0,inactive: 0,inactive: 0,inactive: 0,inactive: 0,inactive: 0
CC(C)n1c(=O)n(C)c2cnc3cc(F)c(-c4ccc(OCCCN5CCCCC5)nc4)cc3c21 (10 µM),inactive: 0,inactive: 0,inactive: 0,inactive: 0,inactive: 0,inactive: 0,inactive: 0,inactive: 0,inactive: 0,inactive: 0,inactive: 0,inactive: 0,inactive: 0,inactive: 0,inactive: 0,inactive: 0,inactive: 0,inactive: 0,inactive: 0,inactive: 0

# 2 entries drawn at random from those above:
SMILES,kinase-Nluc reporter destabilization hit call (CDK7),kinase-Nluc reporter destabilization hit call (CDK9),kinase-Nluc reporter destabilization hit call (CHEK2),kinase-Nluc reporter destabilization hit call (CSF1R),kinase-Nluc reporter destabilization hit call (CSK),kinase-Nluc reporter destabilization hit call (CSNK1A1),kinase-Nluc reporter destabilization hit call (CSNK1D),kinase-Nluc reporter destabilization hit call (DDR1),kinase-Nluc reporter destabilization hit call (DYRK1B),kinase-Nluc reporter destabilization hit call (DYRK2),kinase-Nluc reporter destabilization hit call (EGFR),kinase-Nluc reporter destabilization hit call (EGFR_G719S),kinase-Nluc reporter destabilization hit call (EGFR_G719S_T790M),kinase-Nluc reporter destabilization hit call (EGFR_L718V),kinase-Nluc reporter destabilization hit call (EGFR_L858R),kinase-Nluc reporter destabilization hit call (EGFR_L861Q),kinase-Nluc reporter destabilization hit call (EGFR_T790M),kinase-Nluc reporter destabilization hit call (EPHA2),kinase-Nluc reporter destabilization hit call (ERBB3),kinase-Nluc reporter destabilization hit call [1]
Cn1ncc(NC(=O)c2nc(-c3c(F)cccc3F)sc2N)c1N1CC[C@@H](N)[C@H](F)CC1 (10 µM),inactive: 0,inactive: 0,inactive: 0,inactive: 0,inactive: 0,inactive: 0,inactive: 0,inactive: 0,inactive: 0,inactive: 0,inactive: 0,inactive: 0,inactive: 0,inactive: 0,inactive: 0,inactive: 0,inactive: 0,inactive: 0,inactive: 0,inactive: 0
Cc1ccc(NC(=O)Nc2cc(C(F)(F)F)ccc2F)cc1Nc1ccc2c(c1)NC(=O)/C2=C\c1ccc[nH]1 (2.5 µM),inactive: 0,inactive: 0,inactive: 0,inactive: 0,inactive: 0,inactive: 0,inactive: 0,inactive: 0,inactive: 0,inactive: 0,inactive: 0,inactive: 0,inactive: 0,inactive: 0,inactive: 0,inactive: 0,inactive: 0,inactive: 0,inactive: 0,inactive: 0
